The target of the assay is T1, lysosome-associated protein LAMP1 (human (endogenous in U16 muscle cells)) (UniProt P11279).
T1 sequence: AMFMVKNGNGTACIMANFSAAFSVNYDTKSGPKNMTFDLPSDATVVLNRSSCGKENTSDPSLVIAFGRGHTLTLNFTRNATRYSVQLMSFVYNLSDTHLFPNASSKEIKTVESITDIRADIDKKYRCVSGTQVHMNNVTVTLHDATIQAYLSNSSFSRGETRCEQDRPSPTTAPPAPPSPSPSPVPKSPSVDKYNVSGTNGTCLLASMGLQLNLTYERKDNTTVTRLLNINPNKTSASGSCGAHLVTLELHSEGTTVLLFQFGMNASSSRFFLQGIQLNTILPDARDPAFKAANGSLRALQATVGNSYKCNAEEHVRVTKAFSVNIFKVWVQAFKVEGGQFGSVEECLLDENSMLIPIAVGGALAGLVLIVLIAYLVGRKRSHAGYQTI
The assay can be described thus: co-IP; endogenous proteins of parental MT (day 6) lysate, 500 ug protein; anti-eIF3f or anti-LAMP1 antibody or rabbit IgG isotype overnight at 4 C, Protein G/Protein A Dynabeads; lysis buffer 10% glycerol, 50 mM Tris-HCl pH 7.5, 150 mM NaCl, 1% Triton X-100, 1 mM EDTA; Western blot.

Amino acid sequences for entries named in this document (tags omitted).
UniProt O00303: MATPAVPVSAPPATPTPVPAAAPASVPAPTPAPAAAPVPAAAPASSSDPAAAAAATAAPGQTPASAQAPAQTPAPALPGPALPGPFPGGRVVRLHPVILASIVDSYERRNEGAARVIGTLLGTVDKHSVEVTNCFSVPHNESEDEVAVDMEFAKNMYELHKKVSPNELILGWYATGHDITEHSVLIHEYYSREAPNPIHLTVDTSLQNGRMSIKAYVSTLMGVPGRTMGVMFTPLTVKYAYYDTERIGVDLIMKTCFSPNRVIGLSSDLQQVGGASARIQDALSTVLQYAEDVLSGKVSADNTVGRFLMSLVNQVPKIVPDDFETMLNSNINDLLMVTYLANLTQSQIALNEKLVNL

These are yes or no findings as the source states them, for the method shown. In cells and extracts the contact can be indirect. Some entries that bind do so weakly or less than the wild type.

On to “endogenous eIF3f of parental myotubes (from UniProt O00303 1-357)”, for which the binding entry is recorded as “binds”.

Source of the values: publication PMC12824170.
